Source: PMC5675994

The chains behind the UniProt entries cited, without tags or fusion partners. Where a name states a change or a piece, a line headed by the entry shows the natural chain unless it says otherwise.
UniProt Q07540: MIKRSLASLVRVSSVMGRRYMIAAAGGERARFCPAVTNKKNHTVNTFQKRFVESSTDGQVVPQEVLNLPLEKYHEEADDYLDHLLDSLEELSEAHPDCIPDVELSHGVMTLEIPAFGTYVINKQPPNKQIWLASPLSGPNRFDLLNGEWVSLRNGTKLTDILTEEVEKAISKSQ

B1: Aconitate hydratase, mitochondrial (protein, UniProt P19414 17-778)
chain: ATVSNLTRDSKVNQNLLEDHSFINYKQNVETLDIVRKRLNRPFTYAEKILYGHLDDPHGQDIQRGVSYLKLRPDRVACQDATAQMAILQFMSAGLPQVAKPVTVHCDHLIQAQVGGEKDLKRAIDLNKEVYDFLASATAKYNMGFWKPGSGIIHQIVLENYAFPGALIIGTDSHTPNAGGLGQLAIGVGGADAVDVMAGRPWELKAPKILGVKLTGKMNGWTSPKDIILKLAGITTVKGGTGKIVEYFGDGVDTFSATGMGTICNMGAEIGATTSVFPFNKSMIEYLEATGRGKIADFAKLYHKDLLSADKDAEYDEVVEIDLNTLEPYINGPFTPDLATPVSKMKEVAVANNWPLDVRVGLIGSCTNSSYEDMSRSASIVKDAAAHGLKSKTIFTVTPGSEQIRATIERDGQLETFKEFGGIVLANACGPCIGQWDRRDIKKGDKNTIVSSYNRNFTSRNDGNPQTHAFVASPELVTAFAIAGDLRFNPLTDKLKDKDGNEFMLKPPHGDGLPQRGYDAGENTYQAPPADRSTVEVKVSPTSDRLQLLKPFKPWDGKDAKDMPILIKAVGKTTTDHISMAGPWLKYRGHLENISNNYMIGAINAENKKANCVKNVYTGEYKGVPDTARDYRDQGIKWVVIGDENFGEGSSREHAALEPRFLGGFAIITKSFARIHETNLKKQGLLPLNFKNPADYDKINPDDRIDILGLAELAPGKPVTMRVHPKNGKPWDAVLTHTFNDEQIEWFKYGSALNKIKADEKK
B2: Acetolactate synthase small subunit, mitochondrial (protein, UniProt P25605 25-309)
chain: SSSSTSALAYKQMHRHATRPPLPTLDTPSWNANSAVSSIIYETPAPSRQPRKQHVLNCLVQNEPGVLSRVSGTLAARGFNIDSLVVCNTEVKDLSRMTIVLQGQDGVVEQARRQIEDLVPVYAVLDYTNSEIIKRELVMARISLLGTEYFEDLLLHHHTSTNAGAADSQELVAEIREKQFHPANLPASEVLRLKHEHLNDITNLTNNFGGRVVDISETSCIVELSAKPTRISAFLKLVEPFGVLECARSGMMALPRTPLKTSTEEAADEDEKISEIVDISQLPPG
B3: Isocitrate dehydrogenase [NAD] subunit 2, mitochondrial (protein, UniProt P28241 16-369)
chain: ATVKQPSIGRYTGKPNPSTGKYTVSFIEGDGIGPEISKSVKKIFSAANVPIEWESCDVSPIFVNGLTTIPDPAVQSITKNLVALKGPLATPIGKGHRSLNLTLRKTFGLFANVRPAKSIEGFKTTYENVDLVLIRENTEGEYSGIEHIVCPGVVQSIKLITRDASERVIRYAFEYARAIGRPRVIVVHKSTIQRLADGLFVNVAKELSKEYPDLTLETELIDNSVLKVVTNPSAYTDAVSVCPNLYGDILSDLNSGLSAGSLGLTPSANIGHKISIFEAVHGSAPDIAGQDKANPTALLLSSVMMLNHMGLTNHADQIQNAVLSTIASGPENRTGDLAGTATTSSFTEAVIKRL
B4: Isocitrate dehydrogenase [NAD] subunit 1, mitochondrial (protein, UniProt P28834 12-360)
chain: ATAAQAERTLPKKYGGRFTVTLIPGDGVGKEITDSVRTIFEAENIPIDWETINIKQTDHKEGVYEAVESLKRNKIGLKGLWHTPADQTGHGSLNVALRKQLDIYANVALFKSLKGVKTRIPDIDLIVIRENTEGEFSGLEHESVPGVVESLKVMTRPKTERIARFAFDFAKKYNRKSVTAVHKANIMKLGDGLFRNIITEIGQKEYPDIDVSSIIVDNASMQAVAKPHQFDVLVTPSMYGTILGNIGAALIGGPGLVAGANFGRDYAVFEPGSRHVGLDIKGQNVANPTAMILSSTLMLNHLGLNEYATRISKAVHETIAEGKHTTRDIGGSSSTTDFTNEIINKLSTM
B5: Branched-chain-amino-acid aminotransferase, mitochondrial (protein, UniProt P38891 17-393)
chain: LATGAPLDASKLKITRNPNPSKPRPNEELVFGQTFTDHMLTIPWSAKEGWGTPHIKPYGNLSLDPSACVFHYAFELFEGLKAYRTPQNTITMFRPDKNMARMNKSAARICLPTFESEELIKLTGKLIEQDKHLVPQGNGYSLYIRPTMIGTSKGLGVGTPSEALLYVITSPVGPYYKTGFKAVRLEATDYATRAWPGGVGDKKLGANYAPCILPQLQAAKRGYQQNLWLFGPEKNITEVGTMNVFFVFLNKVTGKKELVTAPLDGTILEGVTRDSVLTLARDKLDPQEWDINERYYTITEVATRAKQGELLEAFGSGTAAVVSPIKEIGWNNEDIHVPLLPGEQCGALTKQVAQWIADIQYGRVNYGNWSKTVADLN
B6: Pyruvate decarboxylase isozyme 1 (protein, UniProt P06169 1-563)
chain: MSEITLGKYLFERLKQVNVNTVFGLPGDFNLSLLDKIYEVEGMRWAGNANELNAAYAADGYARIKGMSCIITTFGVGELSALNGIAGSYAEHVGVLHVVGVPSISAQAKQLLLHHTLGNGDFTVFHRMSANISETTAMITDIATAPAEIDRCIRTTYVTQRPVYLGLPANLVDLNVPAKLLQTPIDMSLKPNDAESEKEVIDTILALVKDAKNPVILADACCSRHDVKAETKKLIDLTQFPAFVTPMGKGSIDEQHPRYGGVYVGTLSKPEVKEAVESADLILSVGALLSDFNTGSFSYSYKTKNIVEFHSDHMKIRNATFPGVQMKFVLQKLLTTIADAAKGYKPVAVPARTPANAAVPASTPLKQEWMWNQLGNFLQEGDVVIAETGTSAFGINQTTFPNNTYGISQVLWGSIGFTTGATLGAAFAAEEIDPKKRVILFIGDGSLQLTVQEISTMIRWGLKPYLFVLNNDGYTIEKLIHGPKAQYNEIQGWDHLSLLPTFGAKDYETHRVATTGEWDKLTQDKSFNDNSKIRMIEIMLPVFDAPQNLVEQAKLTAATNAKQ
B7: ATP synthase subunit gamma, mitochondrial (protein, UniProt P38077 34-311)
chain: ATLKEVEMRLKSIKNIEKITKTMKIVASTRLSKAEKAKISAKKMDEAEQLFYKNAETKNLDVEATETGAPKELIVAITSDKGLCGSIHSQLAKAVRRHLNDQPNADIVTIGDKIKMQLLRTHPNNIKLSINGIGKDAPTFQESALIADKLLSVMKAGTYPKISIFYNDPVSSLSFEPSEKPIFNAKTIEQSPSFGKFEIDTDANVPRDLFEYTLANQMLTAMAQGYAAEISARRNAMDNASKNAGDMINRYSILYNRTRQAVITNELVDIITGASSLG
B8: DnaJ homolog 1, mitochondrial (protein, UniProt P35191 56-511)
chain: NEAFKDPYDTLGLKKSATGAEIKKAYYKLAKKYHPDINKEPDAEKKFHDLQNAYEILSDETKRQQYDQFGPAAFGGGGAAGGAGGGSGSPFGSQFHDFSGFTSAGGSPFGGINFEDLFGAAFGGGGRGSGGASRSSSMFRQYRGDPIEIVHKVSFKDAVFGSKNVQLRFSALDPCSTCSGTGMKPNTHKVSCSTCHGTGTTVHIRGGFQMMSTCPTCNGEGTMKRPQDNCTKCHGEGVQVNRAKTITVDLPHGLQDGDVVRIPGQGSYPDIAVEADLKDSVKLSRGDILVRIRVDKDPNFSIKNKYDIWYDKEIPITTAALGGTVTIPTVEGQKIRIKVAPGTQYNQVISIPNMGVPKTSTIRGDMKVQYKIVVKKPQSLAEKCLWEALADVTNDDMAKKTMQPGTAAGTAINEEILKKQKQEEEKHAKKDDDNTLKRLENFITNTFRKIKGDKKN
B9: Malate dehydrogenase, mitochondrial, P17505 18-334 (protein)
chain: YKVTVLGAGGGIGQPLSLLLKLNHKVTDLRLYDLKGAKGVATDLSHIPTNSVVKGFTPEEPDGLNNALKDTDMVLIPAGVPRKPGMTRDDLFAINASIVRDLAAATAESAPNAAILVISNPVNSTVPIVAQVLKNKGVYNPKKLFGVTTLDSIRAARFISEVENTDPTQERVNVIGGHSGITIIPLISQTNHKLMSDDKRHELIHRIQFGGDEVVKAKNGAGSATLSMAHAGAKFANAVLSGFKGERDVIEPSFVDSPLFKSEGIEFFASPVTLGPDGIEKIHPIGELSSEEEEMLQKCKETLKKNIEKGVNFVASK

Target: T1, Nfs1-His6 (S. cerevisiae) (UniProt P25374)
T1 sequence: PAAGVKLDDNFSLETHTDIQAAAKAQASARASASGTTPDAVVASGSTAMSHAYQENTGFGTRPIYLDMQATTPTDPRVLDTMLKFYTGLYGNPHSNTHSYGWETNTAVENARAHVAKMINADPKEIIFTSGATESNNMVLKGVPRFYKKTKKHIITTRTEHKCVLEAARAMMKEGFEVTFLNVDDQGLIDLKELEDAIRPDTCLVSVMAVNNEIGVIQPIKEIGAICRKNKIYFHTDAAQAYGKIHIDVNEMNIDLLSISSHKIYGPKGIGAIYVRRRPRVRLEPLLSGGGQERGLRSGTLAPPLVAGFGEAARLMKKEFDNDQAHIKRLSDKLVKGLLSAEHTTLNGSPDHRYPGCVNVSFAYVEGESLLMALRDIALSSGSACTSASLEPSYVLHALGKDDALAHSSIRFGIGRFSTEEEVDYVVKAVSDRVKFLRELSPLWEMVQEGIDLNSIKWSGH
Assay: affinity purification with mass spectrometry; Nfs1-His6 held on Ni-NTA superflow agarose from sonicated, cleared lysate of isolated mitochondria of the Gal-Nfs1-His6 yeast strain; 50 mM TrisCl pH 7.5, 80 mM KCl, 10% glycerol, wash 40 mM imidazole, elution 400 mM imidazole; eluate analysed by LC-MS/MS
Conditions: not given

Binder	binding
B1	binds
B2	binds
B3	binds
B4	binds
B5	binds
B6	binds
B7	binds
B8	binds

Target: T2, Nfs1-His6 (S. cerevisiae), P25374
T2 chain: T1 sequence
Assay: as above
Conditions: remark: other sources report otherwise

Binder	binding
B9	binds

Target: Yfh1-His6 (S. cerevisiae) (UniProt Q07540)
Assay: affinity purification with mass spectrometry; Yfh1-His6 held on Ni-NTA superflow agarose from French-press lysate (108,000xg supernatant) of isolated mitochondria of the Yfh1-His6 yeast strain; 50 mM TrisCl pH 7.5, 80 mM KCl, 10% glycerol, wash 40 mM imidazole with 0.1% Triton X-100, elution 400 mM imidazole; eluate analysed by LC-MS/MS
Conditions: not given

Binder	binding
B1	binds
B2	binds
B3	binds
B4	binds
B5	binds
B6	binds
B7	binds
B8	binds

These are yes or no findings as the source states them, for the method shown. In cells and extracts the contact can be indirect. A yes stands for co-enrichment or nearness to the bait. Other partners may have been found. For some assays here: Tags and fused reporters may be left off the sequences shown.
